Experimental data: publication PMC6983718
Results are given in words; binding and its absence hold for the method and conditions named. Binding can be weak; no strength is given. Sequences can lack the tags named with a protein.

Target: microtubules (taxol-polymerised bovine tubulin) (bovine)
Assay: co-sedimentation; MBP or MBP–Mora incubated with 2.25 mg/ml bovine tubulin and 1 mM GTP in general tubulin buffer at 37°C, then 100 µM taxol; spun through 40% glycerol cushion at 100,000 g; supernatant and pellet blotted with anti-MBP and anti-α-Tubulin; control at 4°C without taxol; both purified

B1: MBP–Mora (protein, UniProt Q9VCC0 1-354)
chain: MEQCYNRGCGQLFDPQTNNDESCRHHPGEPFFHDAYKGWSCCNKKSVDFTEFLNIKGCTLAKHSNVKPPEPEKPVKDESDKDEVIEVRAPIREALPRPPIDSPLTVIQPTVAPALKDMVFAVKTPAAQKSSDAIEVGTTCKNNGCTYSFTGNSSDFGECTYHPGVPIFHEGMKFWSCCQKRTSDFSQFMAQKGCTYGEHKWVKENDDKKVVQCRYDWHQTATNVVMAIYAKKYDYSQSVIELNPIRLHVNLVFPEQDNARFDLDLELRGIVNVSNASAHMYGTKVEIKLPKLEPGSWSNLNFPNKKLPVVKKSQVEEKKKQEESDEEFFDLDDIKAETSFRLSEMSMQSPNNLD
  binding: binds
